Protein sequences, listed by entry. Tags and fused reporters are not part of them. Lines headed by an entry give the natural chain unless they say otherwise; changes in a name come on top.
UniProt Q38A45: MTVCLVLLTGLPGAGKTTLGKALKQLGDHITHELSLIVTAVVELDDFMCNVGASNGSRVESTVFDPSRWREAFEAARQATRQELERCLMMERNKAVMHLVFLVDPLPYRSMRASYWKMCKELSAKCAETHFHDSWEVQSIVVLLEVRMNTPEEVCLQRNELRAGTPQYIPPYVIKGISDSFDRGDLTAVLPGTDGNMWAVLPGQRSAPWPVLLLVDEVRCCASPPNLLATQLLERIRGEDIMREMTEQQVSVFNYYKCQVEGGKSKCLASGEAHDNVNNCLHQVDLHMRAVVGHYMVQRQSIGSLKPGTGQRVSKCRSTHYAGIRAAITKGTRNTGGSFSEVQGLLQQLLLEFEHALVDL
UniProt Q382M9: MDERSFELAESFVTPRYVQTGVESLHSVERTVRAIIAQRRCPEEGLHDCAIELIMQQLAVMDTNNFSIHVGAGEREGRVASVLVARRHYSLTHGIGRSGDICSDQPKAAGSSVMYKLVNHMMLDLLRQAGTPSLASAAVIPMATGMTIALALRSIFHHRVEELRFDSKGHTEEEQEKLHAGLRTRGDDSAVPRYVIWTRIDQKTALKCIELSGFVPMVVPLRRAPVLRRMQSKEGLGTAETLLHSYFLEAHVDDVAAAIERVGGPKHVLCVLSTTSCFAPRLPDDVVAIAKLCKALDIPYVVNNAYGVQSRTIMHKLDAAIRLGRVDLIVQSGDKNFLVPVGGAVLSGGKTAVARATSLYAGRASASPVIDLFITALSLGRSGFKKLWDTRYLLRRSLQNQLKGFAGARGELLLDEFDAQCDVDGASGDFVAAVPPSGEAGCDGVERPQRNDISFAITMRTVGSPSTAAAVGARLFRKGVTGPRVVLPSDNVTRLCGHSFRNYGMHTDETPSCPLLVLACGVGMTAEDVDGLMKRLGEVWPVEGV

According to publication PMC7595633 (PLoS Neglected Tropical Diseases, 2020):

T1: TbSEPHS2-PTP (Trypanosoma brucei) (UniProt Q38A34)
T1 sequence: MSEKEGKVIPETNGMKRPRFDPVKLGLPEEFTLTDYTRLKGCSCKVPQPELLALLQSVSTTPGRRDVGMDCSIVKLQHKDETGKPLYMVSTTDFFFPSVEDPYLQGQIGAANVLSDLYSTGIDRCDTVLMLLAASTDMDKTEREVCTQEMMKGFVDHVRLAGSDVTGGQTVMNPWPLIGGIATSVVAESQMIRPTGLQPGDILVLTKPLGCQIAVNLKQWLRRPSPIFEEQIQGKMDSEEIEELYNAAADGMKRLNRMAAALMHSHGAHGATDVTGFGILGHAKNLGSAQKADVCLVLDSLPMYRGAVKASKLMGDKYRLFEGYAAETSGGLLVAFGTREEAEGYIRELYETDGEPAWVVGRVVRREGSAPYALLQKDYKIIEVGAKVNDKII

B1: Trypanosoma brucei selenophosphate synthetase (TbSEPHS2), recombinant full-length (enzyme, UniProt Q38A34 1-393, looked up)
chain: T1 sequence
notes: selenophosphate synthetase SEPHS2 of Trypanosoma brucei, Tb927.10.9410, 393 residues (from the limits of the truncated constructs); also called SPS2; TbSPSH2

Tests used:
Test in all cases: affinity purification with mass spectrometry; PTP tandem affinity purification (IgG Sepharose, TEV elution, anti-protein C matrix) from procyclic T. brucei lysate; SDS-PAGE bands (SYPRO Ruby) identified by LC-MS/MS
[1] = biological target: TbPSTK-PTP (phosphoseryl-tRNASec kinase of T. brucei, PTP-tagged) (Trypanosoma brucei) (UniProt Q38A45)
[2] = biological target: T1, TbSEPHS2-PTP (Trypanosoma brucei)
[3] = biological target: TbeEFSec-PTP (tRNASec-specific elongation factor of T. brucei, PTP-tagged) (Trypanosoma brucei)
[4] = biological target: TbSCLY-PTP (Trypanosoma brucei)

| Molecule | binding [1] | binding [2] | binding [3] | binding [4] |
| --- | --- | --- | --- | --- |
| TbSEPSECS, endogenous in procyclic T. brucei (from UniProt Q382M9) (enzyme) | binds | no binding | – | – |
| TbSCLY, endogenous in procyclic T. brucei (enzyme) | – | binds | – | – |
| B1 | no binding | – | no binding | binds |

No constants are given. Whether binding was seen depends on the method and setting. In cells and extracts the contact can be indirect. Here binding means that the protein was enriched with, or labelled near, the bait; the list need not be complete. For part of these data: A no says only that the protein was not detected with the bait.
